PubChem BioAssay AID1159578, Peter MacCallum Cancer Centre, 2015
Here is one part, drawn at random, of about 18,000 reagents tested. About 1,030 of all reagents (5.7%) count as active. 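Inactive calls also include pools with fewer than 3300 nuclei, whose migration was not assessed.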 Raw values are not corrected between plates. Further read-outs or replicates are left out here. Reagent sequences are not shown.

Screen: 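Knock-downs that alter how fast lymphatic endothelial cells migrate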 (primary screen)
Cells: human lymphatic endothelial cells
Reagents: siRNA pool against human genes, 40 nM
Time to read-out: 48 h after transfection
Measurement: 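High-content imaging of dye-stained cells in a scratch assay measures filled wound area and nuclei per well; duplicate means given as ratio to mock and robust z-score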
Reading the numbers: migration robust z-score: higher = faster migration into the scratch; nuclei per well: higher = more cells in the well
Active means: 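Migration changed when robust z exceeds 2 or falls below -2 and mean nuclei number is at least 3300; otherwise not called changed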
Meaning of the calls: active = migration changed; inactive = no migration change, or too few cells

target	migration robust z-score	nuclei per well, duplicate mean	outcome
DIDO1	0.6	4884	inactive
RHOD	0.47	4210	inactive
PDP2	-1.14	6134	inactive
POLI	-0.86	6984	inactive
ZNF213	-0.05	7288	inactive
KRTAP19-7	-0.55	5502	inactive
GDI1	0.52	5084	inactive
ELF5	0.86	6065	inactive
SLC13A2	-0.44	3870	inactive
LUZP1	-0.96	5502	inactive
HYLS1	0.45	4782	inactive
HMOX2	0	5898	inactive
PCGF1	-0.2	5200	inactive
KIZ	-0.5	6210	inactive
SRRT	0.16	6264	inactive
OSBPL2	0.9	6250	inactive
PPP2R1B	-0.31	4866	inactive
IL2RG	0.91	5961	inactive
HSD3B7	-0.08	5216	inactive
G6PD	-1.55	3128	inactive
NT5DC1	0.36	5286	inactive
SPTSSA	0.52	6946	inactive
IQCN	0.68	5824	inactive
MAP3K15	-1.32	4592	inactive
TUBA1B	-2.27	5852	active
GLYATL1	0.88	3238	inactive
AQP4	0.78	6384	inactive
KRT75	0.49	4679	inactive
ADRA1B	-0.46	6132	inactive
DCAF15	1.3	5936	inactive
NOP2	0.68	5290	inactive
POU2F3	0.36	6198	inactive
NLGN2	0.13	6034	inactive
CDCA7L	0.12	5254	inactive
DYSF	0.5	7486	inactive
RELCH	-2.16	1730	inactive
SLC16A14	0.57	6538	inactive
EVC2	-0.04	5098	inactive
RECQL5	0.86	4508	inactive
TRIM28	-1.32	5444	inactive
GOLGA2P5	0.32	5982	inactive
SLA2	-0.34	5683	inactive
TMEM248	0.66	5208	inactive
MTMR14	-0.8	5124	inactive
GNA15	-0.62	5219	inactive
SMCR8	0.11	3528	inactive
ADH4	-0.28	4273	inactive
PIGA	1.58	6890	inactive
TMEM150A	-0.32	5798	inactive
ARNT2	0.24	5308	inactive
ZBBX	1.01	5063	inactive
VKORC1	-0.42	4105	inactive
MTAP	1.53	5960	inactive
CRIPTO	0.05	5686	inactive
MPHOSPH9	-0.98	7007	inactive
RSAD1	-0.44	6080	inactive
IGSF22	-0.5	5734	inactive

3 neighbouring entries already listed, for reference:
target	migration robust z-score	nuclei per well, duplicate mean	outcome
ZBBX	1.01	5063	inactive
VKORC1	-0.42	4105	inactive
MTAP	1.53	5960	inactive
